Data on one molecule can be found in patent US20200247886A1.

No constants are given. Whether binding was seen depends on the method and setting. Some binding calls cover weakened binding; strength is not graded here. For some assays here: Sequences can lack the tags named with a protein.

The target in assay [1] is CD47 on monkey RBC (Macaca fascicularis). In words: flow cytometry on cynomolgus monkey red blood cells, MFI. A general note: In flow cytometry, cells or beads pass a laser one at a time.
In the next assay the target is T1, CHO/mCD47-GFP (mouse) (UniProt Q61735).
T1 sequence (receptor, looked up): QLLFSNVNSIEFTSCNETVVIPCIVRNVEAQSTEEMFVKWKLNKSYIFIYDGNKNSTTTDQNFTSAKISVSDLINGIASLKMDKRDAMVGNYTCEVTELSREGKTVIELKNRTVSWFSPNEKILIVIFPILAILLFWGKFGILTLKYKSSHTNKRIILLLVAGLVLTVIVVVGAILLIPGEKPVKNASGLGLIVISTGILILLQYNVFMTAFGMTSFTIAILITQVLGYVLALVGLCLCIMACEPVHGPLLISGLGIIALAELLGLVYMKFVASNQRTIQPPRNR
The assay can be described thus: flow cytometry on CHO cells expressing mouse CD47-GFP, binding percentage.

B1: mSIRPa (receptor, UniProt P97797 32-373, looked up)
ligand protein: KELKVTQPEKSVSVAAGDSTVLNCTLTSLLPVGPIRWYRGVGPSRLLIYSFAGEYVPRIRNVSDTTKRNNMDFSIRISNVTPADAGIYYCVKFQKGSSEPDTEIQSGGGTEVYVLAKPSPPEVSGPADRGIPDQKVNFTCKSHGFSPRNITLKWFKDGQELHPLETTVNPSGKNVSYNISSTVRVVLNSMDVNSKVICEVAHITLDRSPLRGIANLSNFIRVSPTVKVTQQSPTSMNQVNLTCRAERFYPEDLQLIWLENGNVSRNDTPKNLTKNTDGTYNYTSLFLVNSSAHREDVVFTCQVKHDQQPAITRNHTVLGFAHSSDQGSMQTFPDNNATHNWN
Take B1: the binding result (in assay [1]; in the assay with CHO/mCD47-GFP (mouse)) was “binds” in each case.
